Measurements reported in PubChem BioAssay AID1259405 (NCATS, 2018).

- Assay: 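Mouse-designed siRNAs used to find CHO productivity engineering targets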 (primary screen)
- Cell system: Chinese hamster CHO-K1 ovary cells with stable secreted eGFP expression
- Knock-down reagent: single siRNA against mouse genes, 0.8 pmol siRNA per well (2 µl of 400 nM stock)
- Timing: 3 days
- Detection: 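Per-well intracellular GFP measured by laser scanning cytometry, plus viability from ATP luminescence, each relative to plate median of non-targeting control wells, in %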
- Scale: GFP, % of control: higher = more GFP per well, higher productivity; viability (ATP), % of control: higher = more viable cells (more ATP)
- Rule for the call: 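Called active when intracellular GFP, relative to negative control, is at or above 120%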
Shown is an unselected part of about 50,000 deposited reagents. Of all reagents, about 4,000 (8%) were called active. 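Mouse siRNA library applied to hamster cells; one well for each siRNA.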 Reagents against one gene are numbered here.

gene symbol | reagent no. | GFP, % of control | viability (ATP), % of control | Call
Lzts1 (leucine zipper, putative tumor suppressor 1) | 1 | 63.5 | 50.7 | inactive
Lzts1 (leucine zipper, putative tumor suppressor 1) | 2 | 84.8 | 63.4 | inactive
Lzts1 (leucine zipper, putative tumor suppressor 1) | 3 | 70.1 | 61 | inactive
Cdcp1 (CUB domain containing protein 1) | 1 | 84.6 | 101 | inactive
Cdcp1 (CUB domain containing protein 1) | 2 | 79.7 | 36.9 | inactive
Cdcp1 (CUB domain containing protein 1) | 3 | 59 | 66.3 | inactive
Gnao1 (guanine nucleotide binding protein, alpha O) | 1 | 38.9 | 50.2 | inactive
Gnao1 (guanine nucleotide binding protein, alpha O) | 2 | 72.3 | 81.8 | inactive
Gnao1 (guanine nucleotide binding protein, alpha O) | 3 | 47.4 | 65.7 | inactive
Ccdc50 (coiled-coil domain containing 50) | 1 | 88.5 | 34.3 | inactive
Ccdc50 (coiled-coil domain containing 50) | 2 | 39.9 | 56.6 | inactive
Ccdc50 (coiled-coil domain containing 50) | 3 | 66.2 | 94.2 | inactive
Ywhag | 1 | 114 | 102 | inactive
Ywhag | 2 | 58.6 | 71.8 | inactive
Ywhag | 3 | 55.4 | 54.8 | inactive
2610318N02Rik (RIKEN cDNA 2610318N02 gene) | 1 | 27.2 | 26.6 | inactive
2610318N02Rik (RIKEN cDNA 2610318N02 gene) | 2 | 69.5 | 60.3 | inactive
2610318N02Rik (RIKEN cDNA 2610318N02 gene) | 3 | 78.3 | 71.9 | inactive
Slc9a4 | 1 | 93.9 | 94.2 | inactive
Slc9a4 | 2 | 31.8 | 89.3 | inactive
Slc9a4 | 3 | 65.1 | 94.4 | inactive
Isy1 (spliceosome associated protein) | 1 | 90.1 | 78.6 | inactive
Isy1 (spliceosome associated protein) | 2 | 144 | 84.1 | active
Isy1 (spliceosome associated protein) | 3 | 105 | 128 | inactive
Cenpo (centromere protein O) | 1 | 91 | 94.8 | inactive
Cenpo (centromere protein O) | 2 | 45.9 | 47.7 | inactive
Cenpo (centromere protein O) | 3 | 71.7 | 66.5 | inactive
Kmt5b (lysine methyltransferase 5B) | 1 | 29.5 | 40.4 | inactive
Kmt5b (lysine methyltransferase 5B) | 2 | 93.8 | 126 | inactive
Kmt5b (lysine methyltransferase 5B) | 3 | 104 | 92 | inactive
Chek1 (checkpoint kinase 1) | 1 | 80.5 | 73.7 | inactive
Snrpc (U1 small nuclear ribonucleoprotein C) | 1 | 117 | 61.6 | inactive
Snrpc (U1 small nuclear ribonucleoprotein C) | 2 | 25.9 | 54.3 | inactive
Snrpc (U1 small nuclear ribonucleoprotein C) | 3 | 49.8 | 57.5 | inactive
Atp13a4 (ATPase type 13A4) | 1 | 50 | 49.5 | inactive
Atp13a4 (ATPase type 13A4) | 2 | 74.3 | 100 | inactive
Atp13a4 (ATPase type 13A4) | 3 | 35.8 | 59.6 | inactive
Septin3 (septin 3) | 1 | 83 | 70.9 | inactive
Septin3 (septin 3) | 2 | 51.5 | 56.9 | inactive
Septin3 (septin 3) | 3 | 66.1 | 64.8 | inactive
Opn4 (opsin 4 (melanopsin)) | 1 | 50.9 | 55.6 | inactive
Opn4 (opsin 4 (melanopsin)) | 2 | 56 | 85.1 | inactive
Opn4 (opsin 4 (melanopsin)) | 3 | 72.8 | 108 | inactive
Pdia4 (protein disulfide isomerase associated 4) | 1 | 58.7 | 93.4 | inactive
Pdia4 (protein disulfide isomerase associated 4) | 2 | 45.1 | 33.4 | inactive
Pdia4 (protein disulfide isomerase associated 4) | 3 | 74.4 | 84.6 | inactive
Klhl2 (kelch-like 2, Mayven) | 1 | 55.9 | 54 | inactive
Klhl2 (kelch-like 2, Mayven) | 2 | 155 | 105 | active
Anp32a (acidic nuclear phosphoprotein 32 family member A) | 1 | 87.4 | 99.3 | inactive
Anp32a (acidic nuclear phosphoprotein 32 family member A) | 2 | 116 | 75.3 | inactive
Anp32a (acidic nuclear phosphoprotein 32 family member A) | 3 | 85.4 | 70 | inactive
Nmt2 (N-myristoyltransferase 2) | 1 | 81.8 | 82.8 | inactive
Nmt2 (N-myristoyltransferase 2) | 2 | 94.2 | 125 | inactive
Nmt2 (N-myristoyltransferase 2) | 3 | 93.9 | 106 | inactive
Sdc4 (syndecan 4) | 1 | 38 | 30.5 | inactive
Sdc4 (syndecan 4) | 2 | 54.4 | 66.7 | inactive
Sdc4 (syndecan 4) | 3 | 67.3 | 65.3 | inactive
4930486L24Rik (RIKEN cDNA 4930486L24 gene) | 1 | 82.8 | 96.5 | inactive
4930486L24Rik (RIKEN cDNA 4930486L24 gene) | 2 | 77 | 72.6 | inactive
4930486L24Rik (RIKEN cDNA 4930486L24 gene) | 3 | 71.3 | 85.2 | inactive
Sstr2 (somatostatin receptor 2) | 1 | 51.7 | 52 | inactive
Sstr2 (somatostatin receptor 2) | 2 | 70.9 | 74.7 | inactive
Sstr2 (somatostatin receptor 2) | 3 | 96.3 | 89.1 | inactive
Fam171a2 (family with sequence similarity 171, member A2) | 1 | 68 | 115 | inactive
Fam171a2 (family with sequence similarity 171, member A2) | 2 | 58.4 | 76.5 | inactive
Fam171a2 (family with sequence similarity 171, member A2) | 3 | 94.1 | 116 | inactive
Aup1 (ancient ubiquitous protein 1) | 1 | 41.9 | 67.3 | inactive
Aup1 (ancient ubiquitous protein 1) | 2 | 73.9 | 84.6 | inactive
Aup1 (ancient ubiquitous protein 1) | 3 | 111 | 38.5 | inactive
Fam25a (family with sequence similarity 25, member A) | 1 | 78.1 | 101 | inactive
Fam25a (family with sequence similarity 25, member A) | 2 | 70.9 | 77.1 | inactive
Fam25a (family with sequence similarity 25, member A) | 3 | 61.5 | 88.9 | inactive
Phf11a (PHD finger protein 11A) | 1 | 103 | 71.7 | inactive
Phf11a (PHD finger protein 11A) | 2 | 72.6 | 63.2 | inactive
Phf11a (PHD finger protein 11A) | 3 | 56.4 | 63.5 | inactive
Or11n2 (olfactory receptor family 11 subfamily N member 2) | 1 | 97.8 | 61.1 | inactive
Or11n2 (olfactory receptor family 11 subfamily N member 2) | 2 | 70.1 | 80.7 | inactive
Or11n2 (olfactory receptor family 11 subfamily N member 2) | 3 | 94.8 | 72.7 | inactive
Sall1 (spalt like transcription factor 1) | 1 | 57.6 | 67.5 | inactive
Sall1 (spalt like transcription factor 1) | 2 | 86.8 | 94.7 | inactive
Sall1 (spalt like transcription factor 1) | 3 | 68.3 | 99.9 | inactive
Nadk (NAD kinase) | 1 | 65.4 | 87.2 | inactive
Gabarap (gamma-aminobutyric acid receptor associated protein) | 1 | 66.2 | 80.3 | inactive
Gabarap (gamma-aminobutyric acid receptor associated protein) | 2 | 63.5 | 89.8 | inactive

11 neighbouring entries from above, for reference:
gene symbol | reagent no. | GFP, % of control | viability (ATP), % of control | Call
Sstr2 (somatostatin receptor 2) | 3 | 96.3 | 89.1 | inactive
Fam171a2 (family with sequence similarity 171, member A2) | 1 | 68 | 115 | inactive
Fam171a2 (family with sequence similarity 171, member A2) | 2 | 58.4 | 76.5 | inactive
Fam171a2 (family with sequence similarity 171, member A2) | 3 | 94.1 | 116 | inactive
Aup1 (ancient ubiquitous protein 1) | 1 | 41.9 | 67.3 | inactive
Aup1 (ancient ubiquitous protein 1) | 2 | 73.9 | 84.6 | inactive
Aup1 (ancient ubiquitous protein 1) | 3 | 111 | 38.5 | inactive
Fam25a (family with sequence similarity 25, member A) | 1 | 78.1 | 101 | inactive
Fam25a (family with sequence similarity 25, member A) | 2 | 70.9 | 77.1 | inactive
Fam25a (family with sequence similarity 25, member A) | 3 | 61.5 | 88.9 | inactive
Phf11a (PHD finger protein 11A) | 1 | 103 | 71.7 | inactive
